Source: PubChem BioAssay AID1794845 (National Center for Advancing Translational Sciences (NCATS), 2023)
The whole screen tested about 6,900 compounds, of which fewer than 10 were called active. Calls come from the whole dose curve; as a rule, active = well fitted curve in the direction sought with a large enough effect; inconclusive = small, poorly fitted or top-dose-only effect, or another doubt; inactive = no such curve, though single readings can be large or run the other way. The list shows a part of the results.

Amino acid sequences for entries named in this document (tags omitted). A change or cut given only in a name is not applied to a line headed by its entry.
UniProt C7C422: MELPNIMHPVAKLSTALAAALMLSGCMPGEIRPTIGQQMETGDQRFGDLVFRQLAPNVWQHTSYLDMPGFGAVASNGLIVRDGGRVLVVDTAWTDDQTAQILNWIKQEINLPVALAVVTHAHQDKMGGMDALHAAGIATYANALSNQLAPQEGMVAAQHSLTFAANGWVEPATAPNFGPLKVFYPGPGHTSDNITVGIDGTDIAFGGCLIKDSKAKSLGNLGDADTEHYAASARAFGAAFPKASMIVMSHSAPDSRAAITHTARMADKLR

Target: Metallo-beta-lactamase type 2 (Klebsiella pneumoniae) (UniProt C7C422)
Experiment: qHTS to identify inhibitors of the New Delhi Metallo-beta-lactamase (NDM): primary screen against the NCATS Gemini Collection; note: % of control where 0% means no effect
Conditions: NDM-1 enzyme, meropenem hydrolysis, absorbance 300 nm; at 38.4 µM (top of the series) unless noted
Procedure, shortened: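 NDM-1 at 2 nM final in 50 mM HEPES pH 7.0, 1 uM ZnSO4, 0.01% Tween20, preincubated >30 min with compound. Meropenem 50 uM final added; absorbance at 300 nm after 30 min.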

Activity % (negative = inhibition), inactive:
COc1ccc(OC)c(CNC(=O)CC2C(=O)NCCN2CC=C(C)C)c1 (centres undefined) 3.9%
O=C(NCc1noc(-c2cccs2)n1)[C@H]1CNC[C@H](C(=O)N2CCCC2)C1 11.9%
CSc1ccc(-c2nc3c([nH]2)CC(C)(C)CNC3=O)cc1 24.6%
Cc1nnc([C@@H]2CC(F)(F)CN2C(=O)c2conc2C)o1 -3.43%
Cn1ccnc1CN1CCN(c2nccc(-c3cccnc3)n2)CC1 -4.79%
O=C(O)C1CC2(CCN(C(=O)CCCn3ccnc3)CC2)CN1 (centres undefined) 91.5%
O=C(CC1CCN(C(=O)c2ccc(F)cc2)C1)NCc1ccccc1 (centres undefined) 4.51%
O=C1c2cnc(-c3cc4ccccc4o3)nc2OCCN1CC1CC1 15.2% [at 57.5 µM]
CCC(NS(=O)(=O)c1ccc(C(=O)NC2CC2)cc1)c1cnn(C)c1 (centres undefined) 4.83%
Cc1cc(C(=O)N2CCCC3(C2)Nc2cccnc2NC3=NCc2ccccc2)nn1C (centres undefined) -3.72%
Cn1cccc1-c1noc(C2CCN(C(=O)CCCc3ccccc3)C2)n1 (centres undefined) 3.13%
OCCOCCn1cnc(-c2ccccc2)c1-c1ccccc1Cn1cccn1 -2.56%
CCC(NS(=O)(=O)c1cc(-n2cccn2)ccc1OC)C1CC(O)C1 (centres undefined) 2.68%
CCn1nc(C)c(-c2cc(C(=O)N3CCCCCCNC(=O)CC3)no2)c1C -1.3%
CCc1nc(-c2c3n(c(=O)n(CC(=O)OC)c2=O)CCCC3)no1 0.26%
O=C(CCc1cnccn1)N1CCC(CCC(=O)N2CCC(Cc3ccccc3)CC2)CC1 50.3%
O=C(c1cccc(OC2CN(CC3CC=CCC3)C2)c1)N1CCCC1 (centres undefined) -1.53%
CCn1c(-c2ccccc2)nn(CC(=O)NCc2ccsc2)c1=O 10.5%
Cc1noc(C)c1S(=O)(=O)N1CC(c2noc(C3CCCN3C)n2)C1 (centres undefined) -5.53%
CC(C)C(=O)N1CCc2[nH]nc(C(=O)NCCCc3ccccc3)c2C1 0.372%
CNCCN(C)C(=O)C1CCCN(C2CCN(C3Cc4ccccc4C3)CC2)C1 (centres undefined) -2.41%
O=C(Nc1ccc([C@H]2OCC(=O)N(C3CCOCC3)[C@@H]2CO)cc1)c1cnccn1 12.1% [at 57.5 µM]
Cc1ccnn1CC(=O)N(Cc1ccncc1)Cc1cccc(OCCc2ccc(F)cc2)c1 29.4%
Cc1cccc(CNC(=O)C2CC(c3ccc(F)c(C)c3)CN(C(=O)c3ccccc3)C2)c1 (centres undefined) 56.6%
O=C(Cn1ccn2nc3c(c2c1=O)CCCCC3)NCc1ccccc1Cl -1.62%
O=C(COc1ccccc1)N1C[C@@H](CO)[C@H](c2ccccn2)C1 4.93%
O=C1NC(=NC2CCCCC2)C2(CCN(Cc3ccccc3)CC2)N1c1cc(F)cc(F)c1 -0.147%
COCC1CN(S(=O)(=O)Cc2cccc(F)c2)CC12CCNCC2 (centres undefined) -3.11%
CN1CCC(N2C[C@@H]3C[C@H]2C(=O)N(CC2CC2)c2ccccc2O3)CC1 7.73% [at 57.5 µM]
Clc1ccccc1CNC[C@H]1Cn2ccnc2CO1 -0.618% [at 77.1 µM]
O=C(c1cccs1)N1CCCN(c2cc(-c3ccc(F)cc3)[nH]n2)CC1 2.22%
CN1Cc2ccc(NCc3ccccc3)nc2C(C)(C(=O)Nc2ccccc2)C1 (centres undefined) 1.37% [at 57.5 µM]
CN(C)CCNC(=O)c1ccnc(-c2nnc3ccc(N(C)c4ccccc4)nn23)c1 14.8% [at 57.5 µM]
O=C(N[C@@H]1CCOC[C@H]1OCc1ccccn1)c1cccc(-n2cnnc2)c1 -0.914%
COC(=O)CNC(=O)c1cc(-c2ccc(Cl)cc2Cl)c2cnn(C)c2n1 8.3%
O=C1CO[C@H]2CN(Cc3ncc[nH]3)C[C@H]2N1Cc1ccc(F)cc1 6.17% [at 57.5 µM]
O=C(CC1CCN(S(=O)(=O)c2ccc(F)cc2F)C1)NCc1ccccc1 (centres undefined) 1.72%
c1ccc(CNc2nc(-c3ccccc3)no2)cc1 -3.61%
CNC(=O)c1noc([C@@H]2CC(F)(F)CN2C(=O)CCOC)n1 -0.329%
O=C(C1CCCN1C(=O)C1CCCC1)N1CCC(N2Cc3ccccc3C2=O)CC1 (centres undefined) 52.2%
COCC1CCN(c2ccc(-c3nc(-c4ccccc4C)no3)cn2)C1 (centres undefined) 35.7%
COc1ccc(-c2ccccc2C(=O)NCC#N)nn1 -0.673% [at 57.5 µM]
Cn1cccc1CN1CCC2(CC1)CNc1ccccc1[S+](=O)([O-])N2 7.23%
CCn1c(CO)nnc1C1CC(NC(=O)c2[nH]c3ccc(OC)cc3c2C)C1 (centres undefined) 13.2%
O=C1CCCN1CCCN1C(=O)[C@@H]2C[C@@H](O)CN2C2(CN(C3CCC(F)(F)CC3)C2)C1=O -3.88%
Cc1ccc(NC(=O)c2cc3c(s2)CN(C2CC2)C3)cc1 18.4%
O=C1COCC2(CN(c3ccc(C(F)(F)F)cn3)C2)CN1c1ccccc1F 23.2% [at 57.5 µM]
O=C1c2cnc(-c3ccsc3)nc2OCCN1CC1CC1 47.5% [at 57.5 µM]
COc1cccc(N2C(=O)NC(=NC3CCCCC3)C23CCN(CC2CC2)C3)c1 (centres undefined) 10.5%
Cc1ccc(-c2nc(NCc3ccncc3)ncc2C(=O)O)cc1 9.55%
N#Cc1ccc(OCC2CN(Cc3cccc(C(F)(F)F)c3)C(=O)c3c(ccnc3-c3ccc(OCC(=O)O)cc3)O2)cc1 (centres undefined) 18.7%
Cc1nn(C)cc1C(=O)NCCn1c(C)cnc1C1CC1 -10.1%
Cc1ccc2cc(CN3CCN(CC(N)=O)CC3)c(-c3cccs3)nc2c1 0.581%
CCN(CC)C(=O)[C@@H](C)C1CC[C@@]2(C)CC[C@H](NC(=O)c3ccncc3)[C@@H](C)[C@@H]2[C@H]1O (some centres undefined) 13.5% [at 57.5 µM]
COc1ccc(C(=O)N2CCC[C@H]2c2nc(-c3ccccc3)no2)cc1 5.95%
Cn1nccc1C(=O)N1CCCCCNC(=O)[C@@H]2CCC[C@@H]21 -0.422%
O=C(NCC1CCOCC1)c1ccoc1 2.58%
Cc1nc([C@@H]2CN(Cc3ccc(C(F)(F)F)cc3)C[C@H]2C(N)=O)n[nH]1 7.17%
COc1ccc(-c2cc3c(cn2)CN(CCc2ccccc2)CCN3)cc1OC 27.5% [at 57.5 µM]
CS(=O)(=O)N1CCOc2ccc(CCC(=O)N3CCC(C(N)=O)CC3)cc2C1 -2.74%
O=C(Nc1ccc(Cl)cc1Cl)c1cnn2ncccc12 38.6% [at 57.5 µM]
COCC(=O)N[C@H]1CC[C@]2(C)CC[C@@H](C(C)C(=O)NC3CC3)[C@H](O)[C@H]2[C@@H]1C (some centres undefined) 1.21% [at 57.5 µM]
CCC1Oc2ccc(NC(=O)Cc3cccs3)cc2CN(C2CCCc3ccccc32)C1=O (centres undefined) -5.31%
COc1ccc(C(=O)NC[C@H]2O[C@H](Cc3cc(CN4CCOCC4)on3)CC[C@@H]2O)cc1 7.81%
CCOc1ccccc1-c1noc(-c2nc(C)no2)n1 -1.26%
Clc1ccc(-c2cnc([C@@H]3COCCN3Cc3ccccc3)[nH]2)s1 4.54% [at 57.5 µM]
O=C1NCC2(CCCN(C(=O)CCc3nc4ccccc4[nH]c3=O)C2)O1 (centres undefined) 6.27%
O=c1ncn(CC2CC2)c2ccc(N3CCC(c4ccccc4)CC3)nc12 24.7% [at 57.5 µM]
Cc1cn2nc(C(=O)Nc3ccc4c(c3)OCCO4)cc2c(N(C)Cc2ccccc2)n1 25.9%
CNC(=O)c1cn2c(n1)CN(C(=O)OCc1ccccc1)CC2 2.52%
Cc1cc(Cl)cc(Cl)c1CNCC1(O)CCCNC1 (centres undefined) -2.6%
COc1ccccc1CN[C@H]1CC(C)(C)[C@@H]2C[C@@](C)(O)CC[C@]12CCC(=O)NCCN1CCOCC1 -9.76%
CCOc1cccc(CN2C[C@@H](Oc3ccccc3)C[C@@H]2C(=O)NC)c1 -0.657%
O=C(CN1CCC2(CC1)NC(=O)CC2C(=O)O)NCc1ccccn1 (centres undefined) 14.2%
Cc1ccc([C@H]2C[C@@H](O)[C@@H](O)[C@@H]2NS(C)(=O)=O)cc1 0.842% [at 77.1 µM]
O=C(NC1CCCN(c2cc(N3CCCC3)ncn2)C1)c1ccco1 (centres undefined) 16.8%
CC(C)N1CC(C(=O)N2CCC(c3ccccc3)CC2)NC1=O (centres undefined) 8.63% [at 57.5 µM]
O=C(NCc1cccnc1)C1CCC(=O)N1C1CCN(C(=O)Cc2ccccc2F)CC1 (centres undefined) 0.0397%
N#Cc1ccc(S(=O)(=O)N2CCc3c(nc(-c4ccc(F)cc4)[nH]c3=O)C2)cc1 0.248%
O=C1NCCC[C@@H]1NC(=O)[C@H]1CN(C(=O)C2CCNCC2)CCN1C(=O)c1cccs1 10.3%
O=C(COc1ccc(F)cc1)N1CCOc2ccc(N3CCOCC3)cc2C1 7.34%
COc1cccc(CCC(=O)NCc2nnc3c(-c4nc(C)no4)cccn23)c1 20.2%
CN(Cc1ccccc1)Cc1cn([C@H]2CO[C@H]3[C@@H]2OC[C@@H]3NC(=O)CCC(=O)O)nn1 9.24% [at 57.5 µM]
COc1ccc(-c2nc(C)nc3c2CCN([S+](=O)([O-])c2cccs2)CC3)cc1 -0.0245%

18 compounds already listed, arranged by SMILES length, descending.
Activity % (negative = inhibition), inactive:
CCN(CC)C(=O)[C@@H](C)C1CC[C@@]2(C)CC[C@H](NC(=O)c3ccncc3)[C@@H](C)[C@@H]2[C@H]1O (some centres undefined) 13.5% [at 57.5 µM]
N#Cc1ccc(OCC2CN(Cc3cccc(C(F)(F)F)c3)C(=O)c3c(ccnc3-c3ccc(OCC(=O)O)cc3)O2)cc1 (centres undefined) 18.7%
CN(Cc1ccccc1)Cc1cn([C@H]2CO[C@H]3[C@@H]2OC[C@@H]3NC(=O)CCC(=O)O)nn1 9.24% [at 57.5 µM]
Cc1cccc(CNC(=O)C2CC(c3ccc(F)c(C)c3)CN(C(=O)c3ccccc3)C2)c1 (centres undefined) 56.6%
Cc1nc([C@@H]2CN(Cc3ccc(C(F)(F)F)cc3)C[C@H]2C(N)=O)n[nH]1 7.17%
O=C1NC(=NC2CCCCC2)C2(CCN(Cc3ccccc3)CC2)N1c1cc(F)cc(F)c1 -0.147%
O=C(CCc1cnccn1)N1CCC(CCC(=O)N2CCC(Cc3ccccc3)CC2)CC1 50.3%
Cc1cc(C(=O)N2CCCC3(C2)Nc2cccnc2NC3=NCc2ccccc2)nn1C (centres undefined) -3.72%
O=C1COCC2(CN(c3ccc(C(F)(F)F)cn3)C2)CN1c1ccccc1F 23.2% [at 57.5 µM]
CN1Cc2ccc(NCc3ccccc3)nc2C(C)(C(=O)Nc2ccccc2)C1 (centres undefined) 1.37% [at 57.5 µM]
Cn1nccc1C(=O)N1CCCCCNC(=O)[C@@H]2CCC[C@@H]21 -0.422%
O=C(Cn1ccn2nc3c(c2c1=O)CCCCC3)NCc1ccccc1Cl -1.62%
O=C(c1cccc(OC2CN(CC3CC=CCC3)C2)c1)N1CCCC1 (centres undefined) -1.53%
COCC1CN(S(=O)(=O)Cc2cccc(F)c2)CC12CCNCC2 (centres undefined) -3.11%
CC(C)N1CC(C(=O)N2CCC(c3ccccc3)CC2)NC1=O (centres undefined) 8.63% [at 57.5 µM]
Cc1ccc(NC(=O)c2cc3c(s2)CN(C2CC2)C3)cc1 18.4%
O=C1c2cnc(-c3ccsc3)nc2OCCN1CC1CC1 47.5% [at 57.5 µM]
COc1ccc(-c2ccccc2C(=O)NCC#N)nn1 -0.673% [at 57.5 µM]
